# These are yes or no findings as the source states them, for the method shown. Binding seen in cells or lysates may run through a third protein. A yes stands for co-enrichment or nearness to the bait. Other partners may have been found. For some assays here: No binding means not detected with the bait.
# T1: TAP-Upf1-CH (2-208) (S. cerevisiae) (UniProt P30771)
# T1 sequence: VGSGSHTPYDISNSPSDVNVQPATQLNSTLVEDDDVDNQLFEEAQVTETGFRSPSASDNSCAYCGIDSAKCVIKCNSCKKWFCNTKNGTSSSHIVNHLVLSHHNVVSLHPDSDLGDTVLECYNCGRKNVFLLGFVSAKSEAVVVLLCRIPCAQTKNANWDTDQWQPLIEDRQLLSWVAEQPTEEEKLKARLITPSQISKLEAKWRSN
# T2: TAP-Upf1-HD (208-853) (S. cerevisiae) (UniProt P30771)
# T2 sequence: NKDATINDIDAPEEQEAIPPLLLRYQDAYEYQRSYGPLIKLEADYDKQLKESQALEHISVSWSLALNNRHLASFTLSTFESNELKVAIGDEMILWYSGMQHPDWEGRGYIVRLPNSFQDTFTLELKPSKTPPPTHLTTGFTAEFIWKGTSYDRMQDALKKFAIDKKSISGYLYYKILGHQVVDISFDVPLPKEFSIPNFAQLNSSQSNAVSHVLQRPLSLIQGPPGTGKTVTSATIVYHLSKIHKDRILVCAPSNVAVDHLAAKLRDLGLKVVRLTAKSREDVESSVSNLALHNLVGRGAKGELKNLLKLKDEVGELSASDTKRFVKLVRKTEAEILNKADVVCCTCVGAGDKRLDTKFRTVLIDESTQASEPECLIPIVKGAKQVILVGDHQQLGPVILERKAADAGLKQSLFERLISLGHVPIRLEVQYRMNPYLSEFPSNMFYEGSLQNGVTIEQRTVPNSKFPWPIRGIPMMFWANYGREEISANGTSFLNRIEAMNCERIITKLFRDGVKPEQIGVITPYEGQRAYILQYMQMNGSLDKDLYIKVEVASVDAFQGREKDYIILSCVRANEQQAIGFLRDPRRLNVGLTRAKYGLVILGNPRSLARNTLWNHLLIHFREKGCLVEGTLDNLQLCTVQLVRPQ
# Tests used:
# [1] = molecular target: T1, TAP-Upf1-CH (2-208) (S. cerevisiae); test: affinity purification with mass spectrometry
# [2] = molecular target: T2, TAP-Upf1-HD (208-853) (S. cerevisiae); test: affinity purification with mass spectrometry
binder,measurement,setting,value
"Nmd4 (protein, UniProt Q12129 1-218) MTQYNFIIDASAFEKGLGNIKRWCSDCTEAVTLNFYIPTFTLNELDFLQQRRKSFAARESLKFIDRLDDSKFANLKVFIEFPEVLDIILWSDVMEHNDSSGKINIAKLPKRLKNLLKSCIYKCYLEGNEGLHWFLISEDPQIREMAMQCNIPSCSIVDVDSILSKDMNDKSFRESEKFNNMMLKNGTKEESENGREIIRTNFNKTVYASRGTGELWSP",binding,[1],no binding
same,binding,[2],binds

# Reference: doi:10.1101/266833
